According to paper PMC9879991, “Biomolecular condensates formed by designer minimalistic peptides” (Nature Communications, 2023):

What was measured:
[1] = Urea analysis: 13C alpha chemical shift changes upon addition of 8 M urea; conditions: denaturating effects induced by 8 M urea
[2] = NaCl-induced 13C chemical shift changes of WGR-1 at 5 and 20 mM; conditions: for Average Δδ* [Hz], aa P: average over all P positions; for Average Δδ* [Hz], aa R: average over all R positions; for Average Δδ* [Hz], aa V: average over all V positions; for Average Δδ* [Hz], aa Y: average over all Y positions
[3] = 5mM peptide, first average column (high)
[4] = 5mM peptide, second average column (low)
[5] = 5 mM, with and without 100mM NaCl, pH 8, 300 K
[6] = 20mM peptide, first average column (high)
[7] = 20mM peptide, second average column (low)
[8] = 20 mM, with and without 100mM NaCl, pH 8, 300 K

## WGRGRGRGWPGVGY [WGR-1]
[1]
  Pro10-Cα chemical shift difference between 0 and 8 M urea: 0.05 ppm
  Trp1-Cα chemical shift difference between 0 and 8 M urea: 0.12 ppm
  Trp9-Cα chemical shift difference between 0 and 8 M urea: 0.15 ppm
  Tyr/Phe14- Cα chemical shift difference between 0 and 8 M urea: 0.37 ppm
[1]; major form
  Val12-Cα (maj.) chemical shift difference between 0 and 8 M urea: 0.02 ppm
[1]; minor form
  Val12-Cα (min.) chemical shift difference between 0 and 8 M urea: 0.08 ppm
[2]; 5mM peptide
  Average Δδ* [Hz], aa P: 1.44 Hz
  Average Δδ* [Hz], aa R: 2.48 Hz
  Average Δδ* [Hz], aa V: 2.36 Hz
  Average Δδ* [Hz], aa Y: 1.64 Hz
[2]; [3]
  Average Δδ* [Hz], aa W1: 4.26 Hz
  Average Δδ* [Hz], aa W9: 2.46 Hz
[2]; [4]
  Average Δδ* [Hz], aa W1: 3.76 Hz
  Average Δδ* [Hz], aa W9: 2.07 Hz
[2]; [5]
  Δδ* 13Cα R (δ 56.31 ppm): 5.22 Hz
  Δδ* 13Cα R (δ 56.42 ppm): -2.08 Hz
  Δδ* 13Cα R (δ 56.62 ppm): -0.87 Hz
  Δδ* 13Cα V (δ 62.41 ppm): 2.81 Hz
  Δδ* 13Cα Vm (δ 62.18 ppm): 2.46 Hz
  Δδ* 13Cα W1 (δ 57.35 ppm): -15.12 Hz
  Δδ* 13Cα Y (δ 59.09 ppm): 0.97 Hz
  Δδ* 13Cβ P (δ 32.77 ppm): 0 Hz
  Δδ* 13Cβ R (δ 30.44 ppm): 3.62 Hz
  Δδ* 13Cβ R (δ 30.49 ppm): 3.55 Hz
  Δδ* 13Cβ R (δ 30.54 ppm): 2.6 Hz
  Δδ* 13Cβ R (δ 30.69 ppm): -3.14 Hz
  Δδ* 13Cβ R (δ 30.7 ppm): -1.51 Hz
  Δδ* 13Cβ V (δ 32.84 ppm): -0.97 Hz
  Δδ* 13Cβ Vm (δ 33.02 ppm): 5.19 Hz
  Δδ* 13Cβ W9m (δ 29.07 ppm): 1.13 Hz
  Δδ* 13Cβ W (δ 31.66 ppm): -33.31 Hz
  Δδ* 13Cβ W (δ 31.86 ppm): -1.53 Hz
  Δδ* 13Cβ Y (δ 39.36 ppm): 0.34 Hz
  Δδ* 13Cβ Ym (δ 39.39 ppm): 0.21 Hz
  Δδ* 13Cγ P (δ 27.22 ppm): 0.11 Hz
  Δδ* 13Cγ Pm (δ 24.15 ppm): 2.67 Hz
  Δδ* 13Cγ R (δ 26.77 ppm): 4.08 Hz
  Δδ* 13Cγ R (δ 26.86 ppm): 3.24 Hz
  Δδ* 13Cγ R (δ 26.94 ppm): 4.26 Hz
  Δδ* 13Cγ R (δ 27.03 ppm): 3.07 Hz
  Δδ* 13Cγ V (δ 20.36 ppm): 1.45 Hz
  Δδ* 13Cγ V (δ 21.06 ppm): 2.82 Hz
  Δδ* 13Cγ Vm (δ 20.01 ppm): 2.26 Hz
  Δδ* 13Cγ Vm (δ 21.03 ppm): 2.22 Hz
  Δδ* 13Cγ W1 (δ 110.85 ppm): -34 Hz
  Δδ* 13Cγ W9 (δ 110.35 ppm): 1.88 Hz
  Δδ* 13Cγ W9m (δ 110.76 ppm): 2.94 Hz
  Δδ* 13Cγ Y (δ 131.87 ppm): 2.84 Hz
  Δδ* 13Cγ Ym (δ 131.85 ppm): 2.61 Hz
  Δδ* 13Cδ1 W1 (δ 127.65 ppm): 11.8 Hz
  Δδ* 13Cδ1 W9 (δ 127.31 ppm): 1.01 Hz
  Δδ* 13Cδ1 W9m (δ 127.47 ppm): 1.25 Hz
  Δδ* 13Cδ2 W1 (δ 129.52 ppm): -2.18 Hz
  Δδ* 13Cδ2 W9 (δ 129.48 ppm): 1.66 Hz
  Δδ* 13Cδ2 W9m (δ 129.36 ppm): 1.6 Hz
  Δδ* 13Cδ P (δ 50.76 ppm): 2.69 Hz
  Δδ* 13Cδ Pm (δ 49.86 ppm): 0.97 Hz
  Δδ* 13Cδ R (δ 43.08 ppm): 3.55 Hz
  Δδ* 13Cδ R (δ 43.14 ppm): 3.63 Hz
  Δδ* 13Cδ R (δ 43.23 ppm): 3.76 Hz
  Δδ* 13Cδ R (δ 43.27 ppm): 4.3 Hz
  Δδ* 13Cδ R (δ 43.29 ppm): 3.06 Hz
  Δδ* 13Cδ Y (δ 133.28 ppm): 0.74 Hz
  Δδ* 13Cε2 W1 (δ 138.96 ppm): 1.32 Hz
  Δδ* 13Cε2 W9 (δ 138.76 ppm): 0.75 Hz
  Δδ* 13Cε2 W9m (δ 138.89 ppm): 0.58 Hz
  Δδ* 13Cε W1 (δ 120.97 ppm): -0.14 Hz
  Δδ* 13Cε W9 (δ 120.81 ppm): 3.85 Hz
  Δδ* 13Cε W9m (δ 120.73 ppm): 2.6 Hz
  Δδ* 13Cε Y (δ 117.99 ppm): 2.69 Hz
  Δδ* 13Cε Ym (δ 118.15 ppm): 1.31 Hz
  Δδ* 13Cζ2 W1 (δ 114.65 ppm): 3.84 Hz
  Δδ* 13Cζ2 W9 (δ 114.67 ppm): 1.51 Hz
  Δδ* 13Cζ2 W9m (δ 114.7 ppm): 2.38 Hz
  Δδ* 13Cζ3 W (δ 122.03 ppm): 5.86 Hz
  Δδ* 13Cζ3 W (δ 122.18 ppm): 2.36 Hz
  Δδ* 13Cζ Y (δ 156.94 ppm): 0 Hz
  Δδ* 13Cζ Ym (δ 156.96 ppm): -0.47 Hz
  Δδ* 13Cη2 W1 (δ 124.67 ppm): 4.66 Hz
  Δδ* 13Cη2 W9 (δ 124.71 ppm): 1.94 Hz
  Δδ* 13Cη2 W9m (δ 124.84 ppm): 0.26 Hz
  Δδ* C' Gm (δ 172.81 ppm): 3.31 Hz
  Δδ* C' Gm (δ 172.85 ppm): 2.78 Hz
  Δδ* C' Gm (δ 173.02 ppm): 0.65 Hz
  Δδ* C' P10 (δ 177.15 ppm): 2.71 Hz
  Δδ* C' R (δ 176.73 ppm): 2.7 Hz
  Δδ* C' R (δ 176.75 ppm): 3.99 Hz
  Δδ* C' R (δ 176.83 ppm): -1.51 Hz
  Δδ* C' R (δ 176.9 ppm): 1.94 Hz
  Δδ* C' R (δ 176.91 ppm): 1.82 Hz
  Δδ* C' V (δ 176.44 ppm): 2.39 Hz
  Δδ* C' Vm (δ 176.34 ppm): 2.26 Hz
  Δδ* C' W1 (δ 177.56 ppm): -86.1 Hz
  Δδ* C' W9 (δ 174.72 ppm): 5.22 Hz
  Δδ* C' W9m (δ 175.29 ppm): -1 Hz
  Δδ* C' Y14 (δ 180.27 ppm): 4.25 Hz
  Δδ* C=NH R (δ 159.27 ppm): 0.33 Hz
  Δδ* C=NH R (δ 159.35 ppm): 0.35 Hz
  Δδ* C=NH R (δ 159.48 ppm): 0 Hz
[2]; 20mM peptide
  Average Δδ* [Hz], aa P: 6.93 Hz
  Average Δδ* [Hz], aa R: 5.64 Hz
  Average Δδ* [Hz], aa V: 5.66 Hz
  Average Δδ* [Hz], aa Y: 5.15 Hz
[2]; [6]
  Average Δδ* [Hz], aa W1: 6.85 Hz
  Average Δδ* [Hz], aa W9: 6.12 Hz
[2]; [7]
  Average Δδ* [Hz], aa W1: 6.49 Hz
  Average Δδ* [Hz], aa W9: 5.86 Hz
[2]; [8]
  Δδ* 13Cα P (δ 63.22 ppm): 14.01 Hz
  Δδ* 13Cα Pm (δ 63.54 ppm): 6.3 Hz
  Δδ* 13Cα R3,5 (δ 56.3 ppm): 7.61 Hz
  Δδ* 13Cα R7 (δ 56.38 ppm): 4.08 Hz
  Δδ* 13Cα R7m (δ 56.59 ppm): 3.9 Hz
  Δδ* 13Cα V (δ 62.39 ppm): 5.96 Hz
  Δδ* 13Cα Vm (δ 62.17 ppm): 5.62 Hz
  Δδ* 13Cα Y (δ 59.11 ppm): 3.26 Hz
  Δδ* 13Cβ P (δ 32.77 ppm): 4.16 Hz
  Δδ* 13Cβ R (δ 30.45 ppm): 6.96 Hz
  Δδ* 13Cβ R (δ 30.51 ppm): 5.28 Hz
  Δδ* 13Cβ R (δ 30.65 ppm): 2.79 Hz
  Δδ* 13Cβ R (δ 30.69 ppm): 3.02 Hz
  Δδ* 13Cβ V (δ 32.84 ppm): 3.67 Hz
  Δδ* 13Cβ Vm (δ 33.02 ppm): 8.52 Hz
  Δδ* 13Cβ W1 (δ 32.03 ppm): -18.16 Hz
  Δδ* 13Cβ W9 (δ 31.85 ppm): 5.7 Hz
  Δδ* 13Cβ W9m (δ 29.06 ppm): 5.62 Hz
  Δδ* 13Cβ Y (δ 39.36 ppm): 4.3 Hz
  Δδ* 13Cβ Ym (δ 39.38 ppm): 4.16 Hz
  Δδ* 13Cγ P (δ 27.2 ppm): 4.88 Hz
  Δδ* 13Cγ Pm (δ 24.15 ppm): 6.35 Hz
  Δδ* 13Cγ R (δ 26.78 ppm): 7.01 Hz
  Δδ* 13Cγ R (δ 26.86 ppm): 6.4 Hz
  Δδ* 13Cγ R (δ 26.94 ppm): 6.95 Hz
  Δδ* 13Cγ R (δ 27.02 ppm): 6.44 Hz
  Δδ* 13Cγ V (δ 20.35 ppm): 5.27 Hz
  Δδ* 13Cγ V (δ 21.07 ppm): 5.92 Hz
  Δδ* 13Cγ Vm (δ 20.01 ppm): 5.68 Hz
  Δδ* 13Cγ Vm (δ 21.04 ppm): 5.65 Hz
  Δδ* 13Cγ W9 (δ 111.35 ppm): 6.6 Hz
  Δδ* 13Cγ W9m (δ 110.77 ppm): 7.14 Hz
  Δδ* 13Cγ Y (δ 131.83 ppm): 8.01 Hz
  Δδ* 13Cγ Ym (δ 131.82 ppm): 8.52 Hz
  Δδ* 13Cδ1 W1 (δ 127.53 ppm): 12.19 Hz
  Δδ* 13Cδ1 W9 (δ 127.28 ppm): 5.75 Hz
  Δδ* 13Cδ1 W9m (δ 127.44 ppm): 5.68 Hz
  Δδ* 13Cδ2 W1 (δ 129.58 ppm): 2.91 Hz
  Δδ* 13Cδ2 W9 (δ 129.49 ppm): 5.33 Hz
  Δδ* 13Cδ2 W9m (δ 129.36 ppm): 5.8 Hz
  Δδ* 13Cδ P (δ 50.74 ppm): 6.64 Hz
  Δδ* 13Cδ Pm (δ 49.84 ppm): 5.09 Hz
  Δδ* 13Cδ R (δ 43.08 ppm): 7.26 Hz
  Δδ* 13Cδ R (δ 43.14 ppm): 7.32 Hz
  Δδ* 13Cδ R (δ 43.23 ppm): 7.61 Hz
  Δδ* 13Cδ R (δ 43.27 ppm): 7.9 Hz
  Δδ* 13Cδ R (δ 43.29 ppm): 7.43 Hz
  Δδ* 13Cδ Y (δ 133.26 ppm): 4.89 Hz
  Δδ* 13Cε2 W1 (δ 138.94 ppm): 5.13 Hz
  Δδ* 13Cε2 W9 (δ 138.75 ppm): 5.09 Hz
  Δδ* 13Cε2 W9m (δ 138.88 ppm): 4.89 Hz
  Δδ* 13Cε W1 (δ 121 ppm): 4.72 Hz
  Δδ* 13Cε W9 (δ 120.8 ppm): 7.02 Hz
  Δδ* 13Cε W9m (δ 120.71 ppm): 6.22 Hz
  Δδ* 13Cε Y (δ 117.99 ppm): 6.47 Hz
  Δδ* 13Cε Ym (δ 118.15 ppm): 4.69 Hz
  Δδ* 13Cζ2 W1 (δ 114.61 ppm): 6.97 Hz
  Δδ* 13Cζ2 W9 (δ 114.66 ppm): 5.73 Hz
  Δδ* 13Cζ3 W (δ 122 ppm): 8.47 Hz
  Δδ* 13Cζ3 W (δ 122.16 ppm): 5.9 Hz
  Δδ* 13Cζ Y (δ 156.97 ppm): 2.52 Hz
  Δδ* 13Cζ Ym (δ 156.99 ppm): 2.29 Hz
  Δδ* 13Cη2 W1 (δ 124.62 ppm): 7.59 Hz
  Δδ* 13Cη2 W9 (δ 124.69 ppm): 6.07 Hz
  Δδ* 13Cη2 W9m (δ 124.82 ppm): 5.16 Hz
  Δδ* C' Gm (δ 172.8 ppm): 6.98 Hz
  Δδ* C' Gm (δ 172.83 ppm): 6.68 Hz
  Δδ* C' Gm (δ 172.997 ppm): 4.41 Hz
  Δδ* C' P10 (δ 177.11 ppm): 7.28 Hz
  Δδ* C' R (δ 176.71 ppm): 5.32 Hz
  Δδ* C' R (δ 176.73 ppm): 5.57 Hz
  Δδ* C' R (δ 176.78 ppm): 3.79 Hz
  Δδ* C' R (δ 176.88 ppm): 4.78 Hz
  Δδ* C' V (δ 176.4 ppm): 5.83 Hz
  Δδ* C' Vm (δ 176.31 ppm): 6.5 Hz
  Δδ* C' W9 (δ 174.7 ppm): 7.02 Hz
  Δδ* C' W9m (δ 175.25 ppm): 2.78 Hz
  Δδ* C' Y14 (δ 180.27 ppm): 7.09 Hz
  Δδ* C=NH R3+5 (δ 159.46 ppm): 4.96 Hz
  Δδ* C=NH R7 (δ 159.34 ppm): 4.92 Hz
  Δδ* C=NH R7m (δ 159.26 ppm): 5.1 Hz

No end group written: not given here.
